16 compounds from the supplement of paper PMC5407854, “Inhibitor of ppGalNAc-T3-mediated O-glycosylation blocks cancer cell invasiveness and lowers FGF23 levels” (eLife, 2017) can be followed below.

Structures are written as SMILES. The list shows a part of the results. Most entries show no effect beyond the scatter of the controls.

The test system of this experiment is ppGalNAc-T2 sensor. The experiment is described as follows: T2 sensor activation Q score (MG/GFP ratio z-score vs DMSO controls) (SD units); higher = more sensor activation (inhibition of ppGalNAc-T2 glycosylation). The conditions noted are these: HEK293 sensor cells; 10 µM; 6 h. The procedure: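 Cells were treated with compound at 10 uM for 6 h, then MG/GFP ratio was read by flow cytometry (10,000 cells per well, duplicate wells). Q = (R - R_neg)/SD_neg relative to DMSO vehicle controls; the signal rises when the glycosyltransferase is inhibited.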
With `Cc1ccc(S(=O)(=O)N(C)C)cc1N`, the “T2 sensor activation Q score” value was 0.08. `Cc1ccc(NS(C)(=O)=O)c(C)c1`: the “T2 sensor activation Q score” value was -0.135. Under `COc1ccc(CN2CCN(c3cccc(C)c3C)CC2)c(OC)c1` stands 1.12; under `Cc1ccc(NS(=O)(=O)c2ccc(F)cc2)cc1C`, 0.04.

In the case of `c1ccc(-c2ccc(CN3CCSCC3)cc2)cc1`, the “T2 sensor activation Q score” value was -0.03. In the case of `c1ccc2c(c1)nnn1c3ccccc3nc21` it was -0.845; in that of `Cc1ccc2[nH]c3c(c2c1)CCCC3NCc1ccc(Cl)cc1` (stereo unspecified), 0.43; in that of `COc1ccc(CN2CCC(N3CCCCC3)CC2)c(OC)c1C`, -1.71. In the case of `CC(=O)c1cccc(Nc2nc(-c3ccc(Cl)cc3)cs2)c1` it was -0.67; in that of `COc1cc(C(=O)N2CCN(C(=O)c3ccco3)CC2)cc(OC)c1OC`, 0.475. Consider `CCCn1ncc(OC)c(Cl)c1=O`, for which the “T2 sensor activation Q score” value was 1.44.

In the case of `Cc1ccc(NC(=O)c2ccc(C(C)(C)C)cc2)cc1`, the “T2 sensor activation Q score” value came to 1.08. Consider `O=C(Nc1ccc(Br)cc1)[C@@H]1C2C=CC(C2)[C@@H]1C(=O)O` (stereo partly specified), for which the “T2 sensor activation Q score” value was -1.69. Under `Cc1ccn2cc(-c3ccc(Cl)cc3)nc2c1` stands -1.76. In the case of `O=C1CC(N2CCN(c3ccccn3)CC2)C(=O)N1c1ccc(Cl)cc1` (stereo unspecified) it was -1.16.

As to `CC(=O)Nc1c(Cl)c(Cl)c(NC(C)=O)c2n[nH]nc12`, the “T2 sensor activation Q score” value was -1.48.
